Source: publication PMC4974071
Results are given in words; binding and its absence hold for the method and conditions named. In cells and extracts the contact can be indirect. Some entries that bind do so weakly or less than the wild type.

Legend:
Assay in all cases: FRET or BRET; BRET in live HEK293 cells co-transfected with 6 fmol Renilla luciferase fusion (donor) and 6 fmol YFP fusion (acceptor) plasmid, 48 hr, then Enduren 60 uM for 4 hr; mean corrected BRET ratios; nuclear-targeted luciferase or YFP as controls
[1] = biological target: T1, BCL11A-S (short isoform of BCL11A), wild-type (human) (UniProt Q9H165)
T1 sequence: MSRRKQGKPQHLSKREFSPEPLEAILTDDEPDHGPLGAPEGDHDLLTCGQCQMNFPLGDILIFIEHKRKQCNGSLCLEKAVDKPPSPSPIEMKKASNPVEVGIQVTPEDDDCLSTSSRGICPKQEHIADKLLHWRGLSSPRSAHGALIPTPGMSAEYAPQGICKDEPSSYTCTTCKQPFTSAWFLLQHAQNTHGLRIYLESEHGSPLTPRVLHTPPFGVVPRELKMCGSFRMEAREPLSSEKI

NONO (human) = biological target: T2, NONO (human) (UniProt Q15233)
T2 sequence: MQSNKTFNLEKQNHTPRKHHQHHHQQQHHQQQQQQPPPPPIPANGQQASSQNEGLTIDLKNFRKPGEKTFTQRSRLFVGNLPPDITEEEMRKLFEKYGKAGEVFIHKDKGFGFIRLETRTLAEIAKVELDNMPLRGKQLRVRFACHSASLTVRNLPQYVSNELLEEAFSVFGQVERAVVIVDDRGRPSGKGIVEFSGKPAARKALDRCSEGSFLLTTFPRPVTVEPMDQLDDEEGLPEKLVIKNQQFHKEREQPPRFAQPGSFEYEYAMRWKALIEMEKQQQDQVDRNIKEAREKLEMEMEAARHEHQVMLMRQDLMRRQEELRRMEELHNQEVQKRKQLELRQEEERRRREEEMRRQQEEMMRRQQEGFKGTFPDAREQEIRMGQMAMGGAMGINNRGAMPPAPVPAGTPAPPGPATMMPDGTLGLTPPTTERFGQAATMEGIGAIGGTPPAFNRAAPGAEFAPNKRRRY

[2] = biological target: BCL11A-L (long isoform of BCL11A), wild-type (human) (UniProt Q9H165)

Substance	binding [1]	binding (NONO (human))	binding [2]
BCL11A-L (long isoform of BCL11A), wild-type (from UniProt Q9H165-2 1-773)	binds	binds	binds
BCL11A-L p.Cys48Phe (from UniProt Q9H165-2 1-773)		binds	
BCL11A-L p.His66Gln (from UniProt Q9H165-2 1-773)		binds	
BCL11A-L p.Thr47Pro (from UniProt Q9H165-2 1-773)		binds	
